US12535491B2, “Vaccine comprising protein-targeted (PT) extracellular DNA isolated from bacterial matrix” (priority 2018, dated 2026)

Tested on: heat-resistant proteins of human plasma
Experiment: LC/MS of heat-resistant proteins in plasma after exposure to proteinase K and boiling
Conditions: for N-plasma + pk: LC/MS, control plasma with added proteinase K, heated at 100° C. for 5 minutes

| Substance | N-plasma + pk | Effect (N-plasma + pk vs N-plasma) (change on adding proteinase K to normal plasma) |
| --- | --- | --- |
| CO3_HUMAN | 88 | ↑ |
| PLMN_HUMAN | 22 |  |
